# Screening data

The results are deposited in PubChem (AID1159506; NCATS, 2015).

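Genome-wide siRNA knockdown in TC32 Ewing sarcoma cells, comparing luciferase light from an NR0B1-promoter reporter with a CMV-promoter reporter 48 hours after transfection.
Each siRNA was applied at 20 nM.
A z-score of the log NR0B1-over-CMV signal, less the median of siRNAs with the same seed; more negative means a stronger specific loss of the NR0B1 reporter.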

This is part of the screen; most of the strongest results are not listed here.
Sequences are the guide (antisense) strand, without overhang.

siRNA | gene | seed-corrected z-score
UCUGCGAUUGUUUCCAGGC | C19orf57 | 0.1715
UUAACUGUAAUUGCUAUUC | SRR | -0.3061
UUCUGGACUGGAUCUGGCA | LOC393078 | -0.4177
UCUUCUCUACAUAGUACCC | PFDN5 | -0.2062
AUGGUUUUCAACGACAUAG | KCNE1 | -0.1894
AGCAUUACCCACAAUAUUC | PHF20 | -0.9475
UAAACUUAGGAGUCACUGG | ZYX | -0.08638
UCUUCUCAUACUCUCGUUC | PLXNB2 | -0.4102
AAUUCGUUCAGGUAGAAAC | RALGAPA2 | 0.06983
UGAAUUCCAAGCUAUCCAC | CRX | -0.05087
UAUUCGGUCGGCUUCAUCC | DDX47 | 0.281
UUUGUUCUGCGCGAUGCUG | VAV2 | -0.2264
UCGGUUUUCAGAACUAAGC | SPRR2G | -0.04021
UGAGUGUACAGUCAUAUAC | AGPAT4 | -0.5129
UACGUGCUUACGAUAUCAC | BRD7 | 1.249
UGUUCGAUGACUUCAAGCC | MAP3K10 | 0.5346
UUCGGUUUCCAAAACAACC | NAA30 | -0.262
UUAAAAGCACGCAUUCUUU | RABGGTA | 0.3998
UAGGUCAAGAUAUCCACUG | LDHA | -0.2519
UUCAUGCGAAAGUACAUGC | PLA2G6 | -0.6642
AUCCUGAUGGUAGCUGUGG | PRR14 | -0.2181
UCUCGAACCUCGUUGAGUC | CCDC51 | -0.4237
UUCUGUAGCAGCUUGGAUG | ATP1A1 | -0.5925
UUCUUUGAUGGUGUCUUCC | LYRM1 | -1.309
UCUGUGAGAAACGUACGCC | TREML1 | -1.943
ACAGGUACCACUGCUGAGG | FURIN | -0.7909
CUCAUAGCCGUACUUGUAU | PSMA6P2 | -1.011
AACCUUAAGAGCUACAAGC | PPP2CA | -0.1901
UUUCUGUUGAUAACCUUCA | MAGEB17 | -1.768
AAAGACGACGGUGAAAUCC | PGA5 | 0.412
UAUCUCGUAUGAUAUGUUG | BBS7 | -0.3905
UACACGAUGAUCUUCUGAG | WDR81 | 0.4488
UUCUUAACUUGUCCAAAUC | GSTA5 | 1.031
AAUCUUCGAAGCAAGUUCC | MAGEE2 | -0.8257
UUCCUCUUCGGCAUUCUCC | POLR2F | -1.896
UUUCGUGAGACAGCAGUUC | BEND7 | -0.1218
UAUUCUCUACCGCUACUUC | LINC00921 | 0.4204
UUCACGCUCAAGCUAAUGC | SIGLEC15 | -0.4742
UUCUUUGUAGCUGGGCCCG | NRM | 0.6205
UACUUCUCCAUCCAUCUUG | SNRNP25 | -0.02452
AAAGCGAACUCUUAAAUCC | TANC2 | 0.0542
AACUUUGUGAUCGUAAUUC | KRR1 | -0.1758
ACGGUUCAAAGAGAGGUUG | FOXK1 | -1.926
AUCAGACUUAGAGAGGUGG | SPATA19 | -0.3288
UCAAUUAUCAUCUUGGUGU | GPKOW | 0.4209
ACUUUUUCCAGCACGAUUC | RPS23 | 2.048
UAAGUGUCCUGCACGUAGU | RASSF10 | 0.4321
AGUUAGGAAAUGCACAUGC | ESRRB | 0.9663

Once more, the final 5:

siRNA	gene	seed-corrected z-score
AUCAGACUUAGAGAGGUGG	SPATA19	-0.3288
UCAAUUAUCAUCUUGGUGU	GPKOW	0.4209
ACUUUUUCCAGCACGAUUC	RPS23	2.048
UAAGUGUCCUGCACGUAGU	RASSF10	0.4321
AGUUAGGAAAUGCACAUGC	ESRRB	0.9663